# Measured values published in the supplement of paper PMC8728848.
# The list shows a part of the results.
# B1: RetS (Pseudomonas aeruginosa), Q9HUV7 (protein)
# chain: MVRLRIAIGLLVSFLLLLLGPMSPAVADDAGVSSVPLQTTATTPSANQNWRLLRDESAQLRIADVLQRKEQFRPLAKRSFIFPASPQAVWLQVQLPAQKVPSWLWIFAPRVQYLDYYLVQDGQLVRDQHTGESRPFQERPLPSRSYLFSLPVDGKPMTLYVRMTSNHPLMAWFDQIDEAGLVGLEKPAYAFGMLLGGMLLLLMYNLIRFAYSRSASSLWLAAVHAALAVCAAANLGLVAFWLPGLKFNQSLTADLGALGAAVSLLWFACSFFRGTAESRLNRLLQGEALLILAVGAIIAFTQQLWFSWLIYLLVILSSLSVPLIAAWHWYRGYQPARLIVAGMIVFNAGFMVFLPVLFGTKQLDPGWLVLGVFSFATLAGLVLSVSLTERQRLIQQLNLQQRTSEAAHTAELQTKAEFLAKISHEIRTPMNGVLGMTELLLGTPLSAKQRDYVQTIHSAGNELLTLINEILDISKLESGQIELDEVQFDLNALIEDCLDIFRVKAEQQRIELISFTQPQVPRVIGGDPTRLRQVVLSLLDNAFKQTEEGEILLVVALDDQGETPRLRIAVQDSGHPFDAKEREALLTAELHSGDFLSASKLGSHLGLIIARQLVRLMGGEFGIQSGSSQGTTLSLTLPLDPQQLENPTADLDGPLQGARLLVVDDNETCRKVLVQQCSGWGLNVSAVSSGKEALAQLRTKAHLREYFDVVLLDQDMPGMTGMQLAAKIKEDPNLNHDILLIMLTGISNAPSKIIARNAGIKRILAKPVAGYTLKATLADELAQRGVSGVTNYLQPAKEAQAPSLPSDFRILVAEDNSISTKVIRGMLNKLNLQPDTASNGQEALSAMKATQYDLVLMDCEMPVLDGFSATEQLRAWEAHEQRPHTPVVALTAHILSEHKERARLVGMDGHMAKPVELSQLRELIAYWVGERDRRRQGDALPS
# Assays:
# Assay in all cases: glycan array binding signal (z-score within array); higher = stronger binding
# Settings in all cases: glycan notation: IUPAC condensed, linker removed
# [1] = target: Fuc(a1-2)Gal(b1-4)[Fuc(a1-3)]GlcNAc
# Procedure, shortened: (§1)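 Negative Z-scores can be read as non-binding. The Z-score is calculated within each array and then averaged across arrays of one protein sequence at different concentrations or buffers and across linkers. Arrays, 3228 in all, were curated from the Consortium for Functional Glycomics database and kept only where the protein sequence was available.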
# [2] = target: Fuc(a1-2)Gal(b1-4)[Fuc(a1-3)]GlcNAc(b1-2)Man(a1-3)[Fuc(a1-2)Gal(b1-4)[Fuc(a1-3)]GlcNAc(b1-2)Man(a1-6)]Man(b1-4)GlcNAc(b1-4)GlcNAc
# Procedure, shortened: as §1
# [3] = target: Fuc(a1-2)Gal(b1-4)[Fuc(a1-3)]GlcNAc(b1-2)[Fuc(a1-2)Gal(b1-4)[Fuc(a1-3)]GlcNAc(b1-4)]Man(a1-3)[Fuc(a1-2)Gal(b1-4)[Fuc(a1-3)]GlcNAc(b1-2)Man(a1-6)]Man(b1-4)GlcNAc(b1-4)GlcNAc
# Procedure, shortened: as §1
# [4] = target: Fuc(a1-2)Gal(b1-4)[Fuc(a1-3)]GlcNAc(b1-3)Gal(b1-4)[Fuc(a1-3)]GlcNAc
# Procedure, shortened: as §1
# [5] = target: Fuc(a1-2)Gal(b1-4)[Fuc(a1-3)]GlcNAc(b1-3)Gal(b1-4)[Fuc(a1-3)]GlcNAc(b1-3)Gal(b1-4)[Fuc(a1-3)]GlcNAc
# Procedure, shortened: as §1
# [6] = target: Fuc(a1-2)Gal(b1-4)[Fuc(a1-3)]GlcNAc(b1-3)GalNAc
# Procedure, shortened: as §1
# [7] = target: Fuc(a1-2)Gal6S(b1-4)Glc
# Procedure, shortened: as §1
# [8] = target: Fuc(a1-2)Gal6S(b1-4)Glc6S
# Procedure, shortened: as §1
# [9] = target: Fuc(a1-2)Gal6S(b1-4)GlcNAc
# Procedure, shortened: as §1
# [10] = target: Fuc(a1-2)[Gal(a1-3)]Gal
# Procedure, shortened: as §1
# [11] = target: Fuc(a1-2)[Gal(a1-3)]Gal(b1-3)GalNAc
# Procedure, shortened: as §1
# [12] = target: Fuc(a1-2)[Gal(a1-3)]Gal(b1-3)GlcNAc
# Procedure, shortened: as §1
# [13] = target: Fuc(a1-2)[Gal(a1-3)]Gal(b1-3)GlcNAc(b1-2)Man(a1-3)[Fuc(a1-2)[Gal(a1-3)]Gal(b1-3)GlcNAc(b1-2)Man(a1-6)]Man(b1-4)GlcNAc(b1-4)GlcNAc
# Procedure, shortened: as §1
# [14] = target: Fuc(a1-2)[Gal(a1-3)]Gal(b1-3)GlcNAc(b1-2)Man(a1-3)[Fuc(a1-2)[Gal(a1-3)]Gal(b1-3)GlcNAc(b1-2)Man(a1-6)]Man(b1-4)GlcNAc(b1-4)[Fuc(a1-6)]GlcNAc
# Procedure, shortened: as §1
# [15] = target: Fuc(a1-2)[Gal(a1-3)]Gal(b1-3)GlcNAc(b1-3)GalNAc
# Procedure, shortened: as §1
# [16] = target: Fuc(a1-2)[Gal(a1-3)]Gal(b1-4)Glc
# Procedure, shortened: as §1
# [17] = target: Fuc(a1-2)[Gal(a1-3)]Gal(b1-4)GlcNAc
# Procedure, shortened: as §1
# [18] = target: Fuc(a1-2)[Gal(a1-3)]Gal(b1-4)GlcNAc(b1-2)Man(a1-3)[Fuc(a1-2)[Gal(a1-3)]Gal(b1-4)GlcNAc(b1-2)Man(a1-6)]Man(b1-4)GlcNAc(b1-4)GlcNAc
# Procedure, shortened: as §1
# [19] = target: Fuc(a1-2)[Gal(a1-3)]Gal(b1-4)GlcNAc(b1-2)Man(a1-3)[Fuc(a1-2)[Gal(a1-3)]Gal(b1-4)GlcNAc(b1-2)Man(a1-6)]Man(b1-4)GlcNAc(b1-4)[Fuc(a1-6)]GlcNAc
# Procedure, shortened: as §1
# [20] = target: Fuc(a1-2)[Gal(a1-3)]Gal(b1-4)GlcNAc(b1-3)GalNAc
# Procedure, shortened: as §1
# [21] = target: Fuc(a1-2)[Gal(a1-3)]Gal(b1-4)[Fuc(a1-3)]Glc
# Procedure, shortened: as §1
# [22] = target: Fuc(a1-2)[Gal(a1-3)]Gal(b1-4)[Fuc(a1-3)]GlcNAc
# Procedure, shortened: as §1
# [23] = target: Fuc(a1-2)[Gal(a1-3)]Gal(b1-4)[Fuc(a1-3)]GlcNAc(b1-3)GalNAc
# Procedure, shortened: as §1
# [24] = target: Fuc(a1-2)[Gal(a1-4)]Gal(b1-4)GlcNAc
# Procedure, shortened: as §1
# [25] = target: Fuc(a1-2)[GalNAc(a1-3)]Gal
# Procedure, shortened: as §1
# [26] = target: Fuc(a1-2)[GalNAc(a1-3)]Gal(b1-3)GalNAc(a1-3)[Fuc(a1-2)]Gal(b1-4)GlcNAc
# Procedure, shortened: as §1
# [27] = target: Fuc(a1-2)[GalNAc(a1-3)]Gal(b1-3)GlcNAc
# Procedure, shortened: as §1
# [28] = target: Fuc(a1-2)[GalNAc(a1-3)]Gal(b1-3)GlcNAc(b1-2)Man(a1-3)[Fuc(a1-2)[GalNAc(a1-3)]Gal(b1-3)GlcNAc(b1-2)Man(a1-6)]Man(b1-4)GlcNAc(b1-4)GlcNAc
# Procedure, shortened: as §1
# [29] = target: Fuc(a1-2)[GalNAc(a1-3)]Gal(b1-3)GlcNAc(b1-2)Man(a1-3)[Fuc(a1-2)[GalNAc(a1-3)]Gal(b1-3)GlcNAc(b1-2)Man(a1-6)]Man(b1-4)GlcNAc(b1-4)[Fuc(a1-6)]GlcNAc
# Procedure, shortened: as §1
# [30] = target: Fuc(a1-2)[GalNAc(a1-3)]Gal(b1-3)GlcNAc(b1-3)GalNAc
# Procedure, shortened: as §1
binder,measurement,setting,value
B1,glycan array binding signal (z-score),[1],-0.272
same,glycan array binding signal (z-score),[2],-1.23
same,glycan array binding signal (z-score),[3],0.111
same,glycan array binding signal (z-score),[4],0.036
same,glycan array binding signal (z-score),[5],-0.117
same,glycan array binding signal (z-score),[6],1.16
same,glycan array binding signal (z-score),[7],-0.311
same,glycan array binding signal (z-score),[8],2.62
same,glycan array binding signal (z-score),[9],0.722
same,glycan array binding signal (z-score),[10],-0.377
same,glycan array binding signal (z-score),[11],0.263
same,glycan array binding signal (z-score),[12],-0.371
same,glycan array binding signal (z-score),[13],0.637
same,glycan array binding signal (z-score),[14],2.79
same,glycan array binding signal (z-score),[15],-0.488
same,glycan array binding signal (z-score),[16],0.118
same,glycan array binding signal (z-score),[17],-0.167
same,glycan array binding signal (z-score),[18],-0.205
same,glycan array binding signal (z-score),[19],0.113
same,glycan array binding signal (z-score),[20],-0.103
same,glycan array binding signal (z-score),[21],-0.851
same,glycan array binding signal (z-score),[22],-0.98
same,glycan array binding signal (z-score),[23],-0.724
same,glycan array binding signal (z-score),[24],-0.96
same,glycan array binding signal (z-score),[25],0.101
same,glycan array binding signal (z-score),[26],0.731
same,glycan array binding signal (z-score),[27],1.31
same,glycan array binding signal (z-score),[28],0.22
same,glycan array binding signal (z-score),[29],0.462
same,glycan array binding signal (z-score),[30],-0.612

# Pulled one by one from above:
binder,measurement,setting,value
B1,glycan array binding signal (z-score),[12],-0.371
same,glycan array binding signal (z-score),[17],-0.167
